Assay results from patent publication US11357857B2, “Excipient compounds for protein processing” (COMERA LIFE SCIENCES, INC., priority 2014, dated 2022).
Where a name gives a salt, the structure may show the parent alone.

Test: Caffeine solubility testing with co-solutes at ambient temperature (Examples 32-33)
Settings: co-solute 40 mg/mL, caffeine 80 mg/mL
Protocol: Prepared solutions were used either neat or diluted with deionized water.
A small magnetic stir bar was added to the vial, and the solution was allowed to mix vigorously on a stir plate for about 10 minutes.

Observation of caffeine dissolution: DND
SMILES: CCN(CC)CC(=O)Nc1c(C)cccc1C [Lidocaine HCl]
